# Whole data set: some 33,000 sequences, median “E-score (-0.5 to 0.5)” near -0.016, cut for the highest 2% near 0.3. Some of the results follow.
# Target: T1, Yer184c (UniProt P39961)
# T1 sequence: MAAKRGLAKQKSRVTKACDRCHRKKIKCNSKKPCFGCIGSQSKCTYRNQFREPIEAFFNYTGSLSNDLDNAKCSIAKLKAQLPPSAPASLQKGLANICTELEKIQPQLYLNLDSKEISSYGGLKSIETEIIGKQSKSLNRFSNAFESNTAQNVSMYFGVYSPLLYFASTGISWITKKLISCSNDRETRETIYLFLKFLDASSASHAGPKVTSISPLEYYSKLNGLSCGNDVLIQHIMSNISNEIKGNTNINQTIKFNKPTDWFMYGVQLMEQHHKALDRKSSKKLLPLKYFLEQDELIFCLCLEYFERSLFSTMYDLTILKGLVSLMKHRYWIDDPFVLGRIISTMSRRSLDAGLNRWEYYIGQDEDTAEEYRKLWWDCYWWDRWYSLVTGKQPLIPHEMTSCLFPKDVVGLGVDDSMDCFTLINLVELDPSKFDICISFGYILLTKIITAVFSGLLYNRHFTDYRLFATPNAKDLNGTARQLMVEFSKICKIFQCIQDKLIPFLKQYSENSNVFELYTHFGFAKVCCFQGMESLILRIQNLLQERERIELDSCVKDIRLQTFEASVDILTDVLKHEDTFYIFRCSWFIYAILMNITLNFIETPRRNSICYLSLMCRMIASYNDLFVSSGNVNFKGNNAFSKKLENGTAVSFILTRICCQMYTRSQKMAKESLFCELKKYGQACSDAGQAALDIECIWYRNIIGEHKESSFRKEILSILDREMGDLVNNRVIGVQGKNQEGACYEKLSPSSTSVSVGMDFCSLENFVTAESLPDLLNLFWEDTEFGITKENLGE
# Assay: PBM E-score (8-mer binding enrichment) (E-score (-0.5 to 0.5)); higher = stronger / more preferred TF binding
# Conditions: protein concentration: 100 nM; construct: GST-full length
# Procedure, shortened: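 Universal all-10-mer Agilent arrays, double-stranded by primer extension on fresh or once-stripped slides, were probed with about 100-200 nM GST-tagged yeast transcription factors made by PURExpress. Fluorescent anti-GST detected bound protein, and masliner normalised the scans. E-scores from the Universal PBM Analysis Suite were given to each ungapped eight-base word pooled with its reverse complement.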
row,Sequence,PBM E-score
1,ACATTCAG,-0.0681
2,AGCCAGTA,-0.0757
3,AAATAAAA,0.0817
4,TAGATATA,0.185
5,GTTGCGAA,0.0378
6,TCGGGCAA,0.0501
7,GTCGGTAA,0.105
8,AGACAGCG,-0.0272
9,ATATAAAC,0.17
10,CGCACGGC,0.0607
11,AGTCGGCC,0.135
12,GGGTTTAA,-0.0383
13,CAGGACCG,0.041
14,CTACAGGA,-0.0405
15,CGGGCTCC,-0.152
16,AAATGATC,-0.0261
17,CTTATCAC,-0.162
18,GGATGCGA,-0.13
19,AGGAAACT,-0.0286
20,ACCCTATA,-0.319
21,ATTCCATC,0.116
22,GGCCTTAC,-0.176
23,CGGGCGGA,0.145
24,AAAGATAA,0.252
25,CTCACGTC,-0.193

row,Sequence,PBM E-score
1,CGGGACTA,0.0259
2,GAAACGAA,0.173
3,AAAATATG,0.125
4,CCCAATTA,-0.153
5,GAAGTGAC,-0.0306
6,CCACATGA,-0.0823
7,CGAAGGGC,-0.0223
8,ACGTTTAG,-0.0604
9,GCCAATTA,0.0492
10,CGTGTGTC,-0.0493
11,ATGCTTCG,0.0835
12,ACAGGATC,-0.217
13,GGGCTTCA,-0.255
14,CAAACGCG,0.133
15,ATAGTCAG,-0.05
16,GCGTTAGA,-0.00877
17,AATTAACG,0.255
18,AACGCGAC,-0.144
19,ATTACCTC,-0.0265
20,ATGCAAAG,-0.00638
21,ACAATAAT,0.18
22,CGACCTCG,-0.0922
23,ACTGAAGC,0.0345
24,CACTCCTG,-0.101
25,TCACGAGA,-0.19

# Single entries from the entries so far:
# In PBM E-score, AAAATATG reads 0.125
# In PBM E-score, ATTACCTC reads -0.0265
# In PBM E-score, TCACGAGA reads -0.19

# (further entries)

row,Sequence,PBM E-score
1,GCACCAGA,-0.115
2,AGCCGCAA,0.0665
3,CCGCTTTC,-0.00893
4,ACCCGGAA,0.346
5,CTGAAGGC,-0.204
6,TATTTAGA,0.22
7,GTCTAGAA,0.139
8,CATCCCCG,0.0463
9,CAAAATTC,0.262
10,ATGATAGC,0.138
11,GAAAGTCA,0.0864
12,AAAGCCCA,-0.0201
13,AAGAATTA,0.134
14,CCATTGTA,0.0103
15,TACAAGCA,0.0494
16,TGCCGACA,0.222
17,AATGCACT,-0.0333
18,ACGTATAT,-0.0477
19,CCCGAAAC,0.0699
20,ATCTGGTC,-0.13
21,TGATGCAA,-0.0409
22,GACAAACA,-0.0145
23,ATGCGAAT,0.0466
24,GAAAATGA,0.113
25,AATAATGA,0.123

row,Sequence,PBM E-score
1,CCTTAGCC,-0.0184
2,TCTAAAGA,0.18
3,AACCTTAT,-0.16
4,AACGGATA,0.374
5,CCAGTCAA,-0.12
6,ACGGGCAC,-0.161
7,CGCGAGGC,-0.0394
8,AATAGATC,0.142
9,CTGCCAAA,0.152
10,CGATTCTA,-0.0583
11,AAAAGTCC,0.0531
12,AGTCCACT,-0.231
13,AAGAAGGT,0.0836
14,CTACCGCC,-0.121
15,AAGTCATC,-0.131
16,AAGAACGG,-0.015
17,AGAAGGCC,0.0148
18,AGACCAAG,0.013
19,GAATGCAA,-0.0488
20,ACCGGTAC,0.0388
21,TGGAGGAA,-0.077
22,CGATAAGC,-0.0115
23,AGATAGGG,-0.134
24,AGGCATCC,-0.248
25,ATTTCCCA,0.107

row,Sequence,PBM E-score
1,ATAACACG,0.0108
2,GGAAGTTA,0.294
3,AATCAAAC,0.109
4,CCCCCCGG,-0.178
5,GGTTCATA,0.0452
6,CGATCTAC,0.0399
7,GTTGCTAA,0.191
8,CTGTGAAG,-0.0496
9,CCCTGTGA,-0.207
10,CCTGTTAC,-0.161
11,CGAACAGC,-0.0365
12,ATTGCAAG,-0.0154
13,AGATCACA,-0.0542
14,AAGGCTAT,-0.0663
15,CATGTGGC,0.0205
16,CCCGAAAG,0.0941
17,AGGCAGAA,-0.033
18,AGAGATCC,-0.00438
19,CTAGCCGC,0.127
20,CCACTTAC,-0.0905
21,ACTACAAT,0.174
22,GGCGCGCC,0.174
23,AGAGCAAG,0.113
24,ACACGAGT,-0.015
25,GGCCACCA,0.0491

# Some of the entries so far, with bars between the fields:
row | Sequence | PBM E-score
2 | GGAAGTTA | 0.294
5 | GGTTCATA | 0.0452
14 | AAGGCTAT | -0.0663
16 | CCCGAAAG | 0.0941
20 | CCACTTAC | -0.0905
25 | GGCCACCA | 0.0491

# Next part:

row,Sequence,PBM E-score
1,CGTCCATA,0.0384
2,GCGGTATA,0.0139
3,CGGAATTA,0.352
4,CCCGTTCA,-0.183
5,ACCTGATA,-0.00294
6,CCAACAGG,-0.295
7,CTATATAC,0.247
8,TTGACAAA,0.206
9,AAAGGGGG,-0.155
10,GGTACTAA,-0.00623
11,ACAATCGT,-0.28
12,GTGGCTAA,0.0584
13,CCAAGCGG,-0.15
14,ACGATCCC,-0.162
15,AACAGATC,0.171
16,GTTGGCTA,-0.0541
17,ACGCGCCC,-0.0103
18,GGGTTACC,-0.301
19,CCATTATC,0.096
20,CCAGTCCG,-0.0409
21,AGGCTTAT,-0.0828
22,ATAACGGA,0.278
23,ATAGCCTA,-0.0458
24,CGTGCAAC,-0.073
25,GTCTTAGA,0.0182

row,Sequence,PBM E-score
1,AATACAGG,-0.0293
2,GCTGCTAA,0.0262
3,CCTGGGGC,-0.249
4,AACTGCTC,-0.0494
5,CGCTCTCC,-0.13
6,ACATGAAT,-0.053
7,CCCCTCCA,-0.219
8,AGATTCCC,-0.0681
9,ACGATGGG,-0.253
10,CTATAACA,-0.0394
11,CATTTCAC,0.0692
12,TAATCAGA,0.0801
13,CTCCGCAC,0.0881
14,GCCCTCAC,-0.211
15,CATCTGCC,-0.22
16,CTAACGAA,0.186
17,CTGTTCGA,0.0676
18,GGGTGAAC,0.0772
19,AAGTGATT,0.0525
20,ATTCCTCC,0.043
21,GACTTTTA,-0.0835
22,CTGTTGCC,-0.123
